Construct, isoform or probe ends are uncertain for at least one entry. For some assays here: A negative result means that nothing was seen under these conditions.
Tests used:
GST = assay: EMSA; settings: ends filled in with biotin-11-dUTP, Tcf7: 10 mM Tris pH 7.5, 50 mM KCl, 1 mM DTT, 2.5 mM EDTA, 50 ng/uL poly(dAdT), 0.05% NP40, 20 min, Gata.a: 10 mM Tris pH 7.5, 50 mM KCl, 5 mM MgCl2, recombinant protein, label: biotin, letters put together from the description
[1] = tested on: Tcf7-GST fusion (Ciona intestinalis); assay: EMSA; settings: ends filled in with biotin-11-dUTP, Tcf7: 10 mM Tris pH 7.5, 50 mM KCl, 1 mM DTT, 2.5 mM EDTA, 50 ng/uL poly(dAdT), 0.05% NP40, 20 min, Gata.a: 10 mM Tris pH 7.5, 50 mM KCl, 5 mM MgCl2, recombinant protein, protein details: GST, label: biotin, letters put together from the description

“AAAGTTCACCGACAAAGATAAGATTT (double strand) [Fgf9/16/20 Tcf7 site b probe]”: no binding (GST); binds [1].
